Holding throughout (assay): co-IP
The target in assay [1] is SEL1L (mouse, wild type) (mouse (endogenous in MEFs and liver)) (UniProt Q9Z2G6).
The target of assay [2] is SEL1L P699T (mouse knock-in, mouse P695T) (mouse (endogenous in MEFs)) (UniProt Q9Z2G6).
For assay [3], the target named is SEL1L (mouse, wild type) (mouse (endogenous in MEFs and liver)) (UniProt Q9Z2G6). The source holds these as a separate data set.
The target of assay [4] is HRD1 (mouse) (mouse (endogenous in MEFs and liver)) (UniProt Q9DBY1).
The target in assay [5] is SEL1L (human, wild type) (human (endogenous in HEK293T)) (UniProt Q9UBV2).
The target of assay [6] is SEL1L L709P (human, knock-in HEK293T) (human (endogenous in HEK293T)) (UniProt Q9UBV2).
Assay [7] has as its target SEL1L L709P (mouse knock-in, mouse L705P) (mouse (endogenous in MEFs and liver)) (UniProt Q9Z2G6).
The target is the same in assay [8]. This is another data set of the same source.

Sequences of proteins named here, by UniProt entry; tags and fusion partners are left off. A change or cut given only in a name is not applied to a line headed by its entry. A line that says so, or that is headed by a name, gives the form on record, which may keep a tag or linker. Residues count along the entry.
SEL1L (mouse, wild type) (mouse (endogenous in MEFs and liver)) (Q9Z2G6, residues 22-790): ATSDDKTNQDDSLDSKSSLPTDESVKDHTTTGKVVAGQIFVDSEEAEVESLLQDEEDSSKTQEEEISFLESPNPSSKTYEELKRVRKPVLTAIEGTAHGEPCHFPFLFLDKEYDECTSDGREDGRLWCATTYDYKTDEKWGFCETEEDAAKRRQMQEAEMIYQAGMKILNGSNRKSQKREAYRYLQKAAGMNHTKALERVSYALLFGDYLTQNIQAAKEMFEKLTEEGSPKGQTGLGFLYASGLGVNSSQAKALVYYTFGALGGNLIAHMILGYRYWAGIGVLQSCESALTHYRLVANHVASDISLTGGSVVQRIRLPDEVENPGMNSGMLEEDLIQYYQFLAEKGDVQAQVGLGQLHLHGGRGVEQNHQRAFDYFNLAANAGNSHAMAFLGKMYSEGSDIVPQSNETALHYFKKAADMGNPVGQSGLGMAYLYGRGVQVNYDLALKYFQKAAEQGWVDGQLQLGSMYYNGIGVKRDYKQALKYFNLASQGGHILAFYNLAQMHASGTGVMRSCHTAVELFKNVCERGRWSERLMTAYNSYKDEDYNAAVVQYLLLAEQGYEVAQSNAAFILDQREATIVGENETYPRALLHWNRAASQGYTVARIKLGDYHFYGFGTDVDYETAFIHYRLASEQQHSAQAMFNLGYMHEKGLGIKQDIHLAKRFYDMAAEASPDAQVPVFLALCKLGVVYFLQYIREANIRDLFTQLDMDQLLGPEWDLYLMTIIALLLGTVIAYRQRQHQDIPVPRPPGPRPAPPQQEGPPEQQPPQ
SEL1L P699T (mouse knock-in, mouse P695T) (mouse (endogenous in MEFs)) (Q9Z2G6, form named): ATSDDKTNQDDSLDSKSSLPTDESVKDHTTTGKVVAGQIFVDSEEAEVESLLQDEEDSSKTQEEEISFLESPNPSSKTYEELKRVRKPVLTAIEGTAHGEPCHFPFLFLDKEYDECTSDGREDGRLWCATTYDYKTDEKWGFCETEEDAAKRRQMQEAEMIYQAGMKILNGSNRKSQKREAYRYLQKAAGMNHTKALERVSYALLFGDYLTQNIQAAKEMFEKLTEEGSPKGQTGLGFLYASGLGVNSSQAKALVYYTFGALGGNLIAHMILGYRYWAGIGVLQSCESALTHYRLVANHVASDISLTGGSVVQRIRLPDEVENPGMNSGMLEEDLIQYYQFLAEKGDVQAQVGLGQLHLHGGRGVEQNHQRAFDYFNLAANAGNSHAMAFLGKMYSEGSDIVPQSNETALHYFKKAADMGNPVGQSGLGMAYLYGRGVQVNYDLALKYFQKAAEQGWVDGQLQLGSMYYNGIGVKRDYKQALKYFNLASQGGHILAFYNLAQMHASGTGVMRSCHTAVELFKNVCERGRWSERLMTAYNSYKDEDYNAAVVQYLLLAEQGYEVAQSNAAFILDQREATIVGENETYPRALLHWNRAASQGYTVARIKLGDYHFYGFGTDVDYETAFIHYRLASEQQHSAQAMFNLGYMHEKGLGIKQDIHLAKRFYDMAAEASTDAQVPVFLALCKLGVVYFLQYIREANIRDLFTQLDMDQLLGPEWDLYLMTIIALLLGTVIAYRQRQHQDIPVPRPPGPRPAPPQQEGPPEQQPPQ
SEL1L L709P (mouse knock-in, mouse L705P) (mouse (endogenous in MEFs and liver)) (Q9Z2G6, form named): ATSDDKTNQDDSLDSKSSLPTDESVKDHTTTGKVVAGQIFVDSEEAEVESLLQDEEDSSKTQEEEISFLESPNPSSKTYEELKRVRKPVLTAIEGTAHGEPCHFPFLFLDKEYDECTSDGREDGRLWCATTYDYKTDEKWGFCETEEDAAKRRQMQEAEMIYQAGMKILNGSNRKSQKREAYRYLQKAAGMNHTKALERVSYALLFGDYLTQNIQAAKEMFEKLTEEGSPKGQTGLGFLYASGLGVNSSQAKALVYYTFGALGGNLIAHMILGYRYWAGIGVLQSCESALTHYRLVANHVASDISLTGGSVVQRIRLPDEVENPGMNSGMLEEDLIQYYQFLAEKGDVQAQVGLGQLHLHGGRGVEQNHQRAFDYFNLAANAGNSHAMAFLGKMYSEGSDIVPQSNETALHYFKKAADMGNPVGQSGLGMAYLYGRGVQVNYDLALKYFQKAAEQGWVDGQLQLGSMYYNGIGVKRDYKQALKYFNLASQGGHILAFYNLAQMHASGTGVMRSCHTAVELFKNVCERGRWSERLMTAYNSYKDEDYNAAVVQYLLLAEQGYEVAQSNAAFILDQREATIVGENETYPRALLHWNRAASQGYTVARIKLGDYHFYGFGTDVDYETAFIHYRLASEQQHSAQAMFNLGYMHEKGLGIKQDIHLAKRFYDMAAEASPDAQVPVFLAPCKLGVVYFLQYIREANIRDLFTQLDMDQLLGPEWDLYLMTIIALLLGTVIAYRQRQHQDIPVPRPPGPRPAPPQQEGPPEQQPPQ
UniProt Q9DBY1: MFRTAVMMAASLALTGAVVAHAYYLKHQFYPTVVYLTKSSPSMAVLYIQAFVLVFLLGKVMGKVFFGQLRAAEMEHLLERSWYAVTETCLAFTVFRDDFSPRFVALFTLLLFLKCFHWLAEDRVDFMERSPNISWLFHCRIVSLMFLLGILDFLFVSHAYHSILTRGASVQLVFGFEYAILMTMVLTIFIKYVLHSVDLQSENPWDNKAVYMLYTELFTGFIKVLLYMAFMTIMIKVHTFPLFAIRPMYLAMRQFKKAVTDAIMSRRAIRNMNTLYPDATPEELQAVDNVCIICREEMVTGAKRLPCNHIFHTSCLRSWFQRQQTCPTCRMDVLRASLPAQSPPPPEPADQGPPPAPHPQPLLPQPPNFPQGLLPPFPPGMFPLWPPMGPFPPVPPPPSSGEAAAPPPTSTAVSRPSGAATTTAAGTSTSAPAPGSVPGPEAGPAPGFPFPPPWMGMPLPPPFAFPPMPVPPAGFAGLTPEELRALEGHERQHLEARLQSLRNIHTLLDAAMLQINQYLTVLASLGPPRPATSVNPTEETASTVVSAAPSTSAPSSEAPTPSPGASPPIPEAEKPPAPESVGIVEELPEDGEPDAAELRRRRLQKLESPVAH
SEL1L (human, wild type) (human (endogenous in HEK293T)) (Q9UBV2, residues 22-794): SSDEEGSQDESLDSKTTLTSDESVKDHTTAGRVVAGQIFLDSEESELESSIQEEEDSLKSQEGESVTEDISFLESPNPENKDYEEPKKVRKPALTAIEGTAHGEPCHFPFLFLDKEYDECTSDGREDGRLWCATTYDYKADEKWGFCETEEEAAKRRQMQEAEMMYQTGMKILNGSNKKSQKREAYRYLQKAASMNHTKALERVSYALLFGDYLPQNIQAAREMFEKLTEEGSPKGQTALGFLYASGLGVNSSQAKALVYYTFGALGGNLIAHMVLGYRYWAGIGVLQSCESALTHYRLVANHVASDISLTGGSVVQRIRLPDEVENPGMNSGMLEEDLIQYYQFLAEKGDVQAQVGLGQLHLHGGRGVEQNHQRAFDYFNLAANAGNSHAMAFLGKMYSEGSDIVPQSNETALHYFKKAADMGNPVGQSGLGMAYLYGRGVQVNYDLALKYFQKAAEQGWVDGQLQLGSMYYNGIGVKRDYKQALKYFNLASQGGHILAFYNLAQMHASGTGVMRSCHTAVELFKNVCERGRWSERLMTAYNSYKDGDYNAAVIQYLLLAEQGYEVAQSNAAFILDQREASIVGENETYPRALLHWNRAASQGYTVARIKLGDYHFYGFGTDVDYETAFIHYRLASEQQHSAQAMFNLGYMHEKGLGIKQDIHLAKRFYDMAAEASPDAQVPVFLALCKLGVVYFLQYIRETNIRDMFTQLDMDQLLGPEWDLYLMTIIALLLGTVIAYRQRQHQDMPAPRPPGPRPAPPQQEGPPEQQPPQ
SEL1L L709P (human, knock-in HEK293T) (human (endogenous in HEK293T)) (Q9UBV2, form named): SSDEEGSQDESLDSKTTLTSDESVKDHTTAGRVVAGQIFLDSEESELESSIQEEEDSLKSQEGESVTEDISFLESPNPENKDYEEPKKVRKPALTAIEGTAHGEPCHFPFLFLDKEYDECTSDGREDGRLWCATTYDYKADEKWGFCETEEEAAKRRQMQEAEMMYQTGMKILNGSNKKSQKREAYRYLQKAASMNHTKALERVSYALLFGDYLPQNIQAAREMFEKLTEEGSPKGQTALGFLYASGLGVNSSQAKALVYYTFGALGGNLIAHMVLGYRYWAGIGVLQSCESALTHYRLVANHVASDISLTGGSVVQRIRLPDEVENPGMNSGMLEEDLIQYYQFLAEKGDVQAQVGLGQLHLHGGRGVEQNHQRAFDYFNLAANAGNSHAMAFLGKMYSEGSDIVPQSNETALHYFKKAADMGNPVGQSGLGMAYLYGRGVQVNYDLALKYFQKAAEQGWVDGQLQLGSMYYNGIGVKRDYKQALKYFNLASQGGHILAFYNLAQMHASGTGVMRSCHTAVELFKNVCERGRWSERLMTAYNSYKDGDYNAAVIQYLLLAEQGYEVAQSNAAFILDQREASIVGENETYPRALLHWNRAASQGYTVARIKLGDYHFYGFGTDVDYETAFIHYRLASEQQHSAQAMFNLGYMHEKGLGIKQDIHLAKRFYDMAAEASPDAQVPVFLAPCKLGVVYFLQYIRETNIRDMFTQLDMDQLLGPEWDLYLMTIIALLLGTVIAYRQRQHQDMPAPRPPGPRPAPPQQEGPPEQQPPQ

Where two headings read alike, the source gives them in different places. Results are given in words; binding and its absence hold for the method and conditions named. In cells and extracts the contact can be indirect. Some results given as binding are weak or reduced against the parent protein; the word gives no strength.

As to “HRD1 (mouse) (from UniProt Q9DBY1 1-612)”, the binding entry in assay [1], in assay [2] and in assay [3] was “binds” throughout.

“SEL1L (mouse, wild type) (from UniProt Q9Z2G6 22-790)”: the binding entry in assay [4] is given as “binds”.

B1: OS9 (human) (protein, UniProt Q13438 26-667)
chain: GGVGSLNLEELSEMRYGIEILPLPVMGGQSQSSDVVIVSSKYKQRYECRLPAGAIHFQREREEETPAYQGPGIPELLSPMRDAPCLLKTKDWWTYEFCYGRHIQQYHMEDSEIKGEVLYLGYYQSAFDWDDETAKASKQHRLKRYHSQTYGNGSKCDLNGRPREAEVRFLCDEGAGISGDYIDRVDEPLSCSYVLTIRTPRLCPHPLLRPPPSAAPQAILCHPSLQPEEYMAYVQRQADSKQYGDKIIEELQDLGPQVWSETKSGVAPQKMAGASPTKDDSKDSDFWKMLNEPEDQAPGGEEVPAEEQDPSPEAADSASGAPNDFQNNVQVKVIRSPADLIRFIEELKGGTKKGKPNIGQEQPVDDAAEVPQREPEKERGDPERQREMEEEEDEDEDEDEDEDERQLLGEFEKELEGILLPSDRDRLRSEVKAGMERELENIIQETEKELDPDGLKKESERDRAMLALTSTLNKLIKRLEEKQSPELVKKHKKKRVVPKKPPPSPQPTEEDPEHRVRVRVTKLRLGGPNQDLTVLEMKRENPQLKQIEGLVKELLEREGLTAAGKIEIKIVRPWAEGTEEGARWLTDEDTRNLKEIFFNILVPGAEEAQKERQRQKELESNYRRVWGSPGGEGTGDLDEFDF
Regarding B1, the binding entry in assay [5] and in assay [6] was “binds” each time.

B2: UBE2J1 (mouse) (enzyme, UniProt Q9JJZ4 1-318)
chain: METRYNLKSPAVKRLMKEAAELKDPTDHYHAQPLEDNLFEWHFTVRGPPDSDFDGGVYHGRIVLPPEYPMKPPSIILLTANGRFEVGKKICLSISGHHPETWQPSWSIRTALLAIIGFMPTKGEGAIGSLDYTPEERRALAKKSQDFCCEGCGSAMKDVLLPLKSGSGSSQADQEAKELARQISFKAEVNSSGKTIAESDLNQCFSLNDSQDDLPTTFQGATASTSYGAQNPSGAPLPQPTQPAPKNTSMSPRQRRAQQQSQRRPSTSPDVLQGQPPRAHHTEHGGSAMLIIILTLALAALIFRRIYLANEYIFDFEL
Take B2: the binding result in assay [1], in assay [7], in assay [3] and in assay [8] was “binds” each time.

B3: UBE2J1 (human) (enzyme, UniProt Q9Y385 1-318)
chain: METRYNLKSPAVKRLMKEAAELKDPTDHYHAQPLEDNLFEWHFTVRGPPDSDFDGGVYHGRIVLPPEYPMKPPSIILLTANGRFEVGKKICLSISGHHPETWQPSWSIRTALLAIIGFMPTKGEGAIGSLDYTPEERRALAKKSQDFCCEGCGSAMKDVLLPLKSGSDSSQADQEAKELARQISFKAEVNSSGKTISESDLNHSFSLTDLQDDIPTTFQGATASTSYGLQNSSAASFHQPTQPVAKNTSMSPRQRRAQQQSQRRLSTSPDVIQGHQPRDNHTDHGGSAVLIVILTLALAALIFRRIYLANEYIFDFEL
As for B3, the binding result in assay [5] and in assay [6] was “binds” throughout.

(Values after paper doi:10.1101/2025.08.01.668162.)
